# Assay results taken from PubChem BioAssay AID504444 (National Center for Advancing Translational Sciences (NCATS), 2011).
# About 7,500 (2.1%) of roughly 360,000 compounds were called active. The inconclusive results got no clear call from the source; some entries with a clear call stand among them for comparison. The call rests on the fitted dose curve; in most records, active means well fitted inhibition curve with a large enough effect; inconclusive means small, poorly fitted or top-dose-only effect, or effect the other way; inactive means flat fitted curve, though single readings scatter. Where the call is inconclusive, the potency comes from a doubtful curve fit.
# Test: Nrf2 qHTS screen for inhibitors; further: nearly all actives have a fitted effect of over 60% in size
# Conditions: A549 ARE-Fluc reporter, luciferase luminescence, 18-24 h; series mostly up to 46 µM
# In short: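 Nrf2 activity is the BugLite luminescence, read 15 min after reagent at room temperature, following CellTiter-Fluor cytotoxicity readout (30 min, 37C). Compound titrations were applied for 18-24 h to 5000 A549 ARE_Fluc cells/well in 5% FBS OPTI-MEM.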
# Potency means the concentration at half of the fitted maximal effect.
row,SMILES,Potency
1,CC(=O)Nc1ccc(OCc2cnc(Cl)s2)cc1,"inconclusive: 18.4 µM [activator, partial curve, poor fit]"
2,COc1ccccc1OCCn1c(=S)[nH]c2ccccc21,"inconclusive: 13 µM [activator, partial curve, poor fit]"
3,COc1ccc(C(NC(=O)/C=C\c2ccco2)c2ccc(OC)c(OC)c2)cc1 (stereo unspecified),inactive
4,Cc1ccc2oc(=O)c3cc(C(=O)Nc4ccc(F)cc4F)sc3c2c1,inactive
5,Cc1ccc(S(=O)(=O)N(C)CC(=O)O/N=C(\N)c2cccc([N+](=O)[O-])c2)cc1,"inconclusive: 11.6 µM [falling, partial curve, poor fit]"
6,COc1ccc(CCNC(=O)c2ccc(Cn3c(=O)c4ccccc4n(Cc4cc(C)ccc4C)c3=O)cc2)cc1OC,"inconclusive: 25.9 µM [activator, single point]"
7,CCN(C(=O)c1cc2cc3ccc(C)cc3nc2o1)c1ccc(OC)cc1,"inconclusive: 7.31 µM [falling, partial curve]"
8,Cc1cc(C)c2nc(N3CCCC(C(=O)NCc4cccc(Br)c4)C3)sc2c1 (stereo unspecified),"inconclusive: 4.11 µM [activator, full curve]"
9,CC(Cc1ccccc1)NC(=O)c1cc2ccccc2o1 (stereo unspecified),"inconclusive: 10.3 µM [activator, partial curve]"
10,Cc1ccc(N=Nc2c(C)[nH]n(C(N)=S)c2=O)cc1C,"inconclusive: 10.3 µM [activator, partial curve]"
11,O=C(CSc1nnc(-c2cccs2)n1Cc1ccco1)Nc1ccc2c(c1)OCO2,inactive
12,CCOC(=O)CCC(=O)OCC(=O)NC(C)C1CC2CCC1C2 (stereo unspecified),"inconclusive: 5.17 µM [activator, single point]"
13,O=C(Nc1nc2ccc(Cl)cc2s1)c1ccco1,"inconclusive: 8.2 µM [activator, partial curve]"
14,CC1SC(c2ccc(F)cc2)N(CCc2ccccc2)C1=O (stereo unspecified),"inconclusive: 29.1 µM [activator, single point]"
15,COc1ccc(C(C(=O)NC2CCCC2)N(C(=O)c2snc(C(N)=O)c2N)c2cc(C)ccc2OC)cc1OC (stereo unspecified),"inconclusive: 23.1 µM [activator, single point]"
16,CCCCn1c(C)csc1=Nc1cccnc1,"inconclusive: 20.6 µM [falling, single point]"
17,Clc1cncc(Cl)c1N/N=C/c1ccncc1,"inconclusive: 18.4 µM [falling, single point]"
18,CN(C)c1ccc(CNC(=O)CN2C(=O)c3cccnc3Oc3ccc(Cl)cc32)cc1,inactive
19,CCOc1ccc(S(=O)(=O)N2CCN(C(=O)c3ccc(C)c(S(=O)(=O)N4CCOCC4)c3)CC2)cc1,"inconclusive: 9.2 µM [falling, partial curve]"
20,O=C(NCCN1CCOCC1)c1ccccc1N1C(=O)[C@@H]2Cc3c([nH]c4ccccc34)C(c3ccc(F)cc3)N2C1=O (stereo partly specified),inactive
21,COc1ccc(NC(=S)N(CCc2c(C)[nH]c3ccc(C)cc23)Cc2cccnc2)cc1,active: 20.6 µM
22,Cc1c(NS(=O)(=O)c2ccccc2)cc(Cl)c(O)c1C,inactive

row,SMILES,Potency
1,CS(=O)(=O)N1CCC(C(=O)NCc2ccccc2)CC1,"inconclusive: 6.51 µM [activator, full curve, poor fit]"
2,O=C1NC2(CCCCC2)C(=O)N1CC(=O)N(Cc1ccccc1)c1ccccc1,"inconclusive: 20.6 µM [falling, single point]"
3,CCn1c2ccccc2c2nnc(SCc3ccccc3)nc21,"inconclusive: 29.1 µM [falling, single point]"
4,COC(=O)c1ccccc1-c1ccc(C(c2c(C)[nH][nH]c2=O)c2c(C)[nH][nH]c2=O)o1,"inconclusive: 16.4 µM [falling, partial curve, poor fit]"
5,CC(C)C(=O)Nc1nc2c(ncn2[C@H]2CC(O)[C@@H](CO)O2)c(=O)[nH]1 (stereo partly specified),"inconclusive: 3.66 µM [falling, partial curve, poor fit]"
6,COc1cc(C(CC(=O)Nc2ccc(Br)cn2)N2Cc3ccccc3C2=O)cc(OC)c1OC (stereo unspecified),"inconclusive: 16.4 µM [falling, single point]"
7,O=C(CC1(C(F)(F)F)OCCO1)Nc1ccc2c(c1)OCO2,"inconclusive: 14.6 µM [activator, single point]"
8,O=C(CN1C(=O)c2ccccc2S1(=O)=O)Nc1ncccn1,inactive
9,C/C(CCc1ccc2c(c1)OCO2)=N\NC(=O)c1ccccc1,"inconclusive: 16.4 µM [activator, partial curve]"
10,Cc1ccc(-c2nnc(N3CCOCC3)c3ccccc23)cc1S(N)(=O)=O,"inconclusive: 29.1 µM [falling, single point]"
11,CCOc1cc(/C=N/NC(=O)CSc2nncn2C)ccc1OC(=O)c1ccc(Cl)cc1,active: 20.6 µM
12,Cc1c(C(=O)Nc2cccc(F)c2)oc2c1-c1nn(Cc3c(F)cccc3Cl)cc1CC2,"inconclusive: 25.9 µM [activator, single point]"
13,O=C(CC1C(=O)NCCN1C(=O)Nc1ccc(C(F)(F)F)cc1)Nc1ccc(F)cc1 (stereo unspecified),"inconclusive: 20.6 µM [falling, partial curve, poor fit]"
14,O=S(=O)(c1ccc(C(F)(F)F)cc1)N1CCN(S(=O)(=O)c2ccc3c(c2)OCCO3)CC1,inactive
15,COc1cc(NC(=O)c2ccc(Cl)cc2)c2ncccc2c1,"inconclusive: 16.4 µM [falling, partial curve]"
16,CCOC(=O)C(C)(C)Sc1nc2c(cnn2-c2ccc(C)cc2)c(=O)[nH]1,"inconclusive: 23.1 µM [falling, partial curve, poor fit]"
17,Cc1ccc(Nc2nc3ccc(C)cc3nc2-n2nc(C)cc2C)c(C)c1,inactive
18,COc1ccc2c(c1OC)C(=O)OC2Nc1nc(-c2cc3cc(Br)ccc3oc2=O)cs1 (stereo unspecified),"inconclusive: 6.51 µM [activator, partial curve]"
19,COc1ccc(C2=NCC(CSc3nnc(-c4ccc5c(c4)OCO5)o3)S2)cc1 (stereo unspecified),"inconclusive: 23.1 µM [falling, single point]"
20,Cc1nonc1C1CCCN1C(=O)c1cc(COc2ccc(F)cc2F)on1 (stereo unspecified),"inconclusive: 7.31 µM [activator, partial curve]"
21,CCCNC(=O)CN1C(=O)COc2ccc(S(=O)(=O)N3CC(C)CC(C)C3)cc21 (stereo unspecified),inactive
22,COc1ccc(Cl)cc1NC(=O)CN(C)C(=O)CCC(=O)c1cc(C)sc1C,active: 8.2 µM

# A stretch of the results above:
row,SMILES,Potency
18,CN(C)c1ccc(CNC(=O)CN2C(=O)c3cccnc3Oc3ccc(Cl)cc32)cc1,inactive
19,CCOc1ccc(S(=O)(=O)N2CCN(C(=O)c3ccc(C)c(S(=O)(=O)N4CCOCC4)c3)CC2)cc1,"inconclusive: 9.2 µM [falling, partial curve]"
20,O=C(NCCN1CCOCC1)c1ccccc1N1C(=O)[C@@H]2Cc3c([nH]c4ccccc34)C(c3ccc(F)cc3)N2C1=O (stereo partly specified),inactive

# Further structures:

row,SMILES,Potency
1,Cc1ccccc1OCCOC(=O)c1cc(S(=O)(=O)N2CCCCC2)ccc1N1CCOCC1,active: 16.4 µM
2,O=C1c2ccccc2C(=O)N1Cc1cc(Cl)c(O)c([N+](=O)[O-])c1,"inconclusive: 16.4 µM [falling, single point]"
3,O=C(Nc1cccc(O)c1)c1ccc(Br)cc1,"inconclusive: 23.1 µM [activator, single point]"
4,CN(C)C=NC(=O)c1ccc([N+](=O)[O-])c(CS(=O)(=O)c2ccc(Cl)cc2)c1,"inconclusive: 13 µM [falling, single point]"
5,CCCC1c2ccsc2CCN1C(=S)NC (stereo unspecified),"inconclusive: 32.6 µM [falling, single point]"
6,CCOc1ccccc1NC(=O)Cn1cnc2c1c(=O)n(C)c(=O)n2C,inactive
7,CC(=O)Nc1ccc(SCCC2CCCCN2C)cc1 (stereo unspecified),"inconclusive: 3.66 µM [activator, partial curve, poor fit]"
8,COc1ccccc1NC(=O)c1cc(S(=O)(=O)NCc2ccccc2)ccc1F,"inconclusive: 0.92 µM [falling, full curve, poor fit]"
9,N/C(=N\OC(=O)Cc1cccs1)c1cccc([N+](=O)[O-])c1,"inconclusive: 3.26 µM [activator, full curve]"
10,Cc1ccc(CNC(=O)c2c(O)nc3ccccn3c2=O)cc1,"inconclusive: 4.11 µM [activator, single point]"
11,Cc1ccc(Cn2c(=O)n(CC3CCC(C(=O)N4CCC(C)CC4)CC3)c(=O)c3sccc32)cc1 (stereo unspecified),inactive
12,CCOC(=O)C1=C(N)Oc2cc(O)ccc2C1c1cccc(Cl)c1 (stereo unspecified),inactive
13,Cc1oc2c(c1C(=O)Nc1ccccc1Br)C1=NCCN1C=N2,"inconclusive: 29.1 µM [activator, single point]"
14,O=C(NCCc1cccs1)c1ccc(Cn2c(SCc3ccccc3)nc3cccnc32)cc1,"inconclusive: 29.1 µM [activator, single point]"
15,COc1cccc(CNC(=O)c2sc3nc4n(c(=O)c3c2C)CCC4)c1,inactive
16,CC(C)CNC(=S)N1CCC(Cc2ccccc2)CC1,"inconclusive: 29.1 µM [falling, single point]"
17,COc1ccc(N=c2nc(-c3ccc(C)cc3)n(-c3ccccc3)s2)cc1,"inconclusive: 29.1 µM [falling, single point]"
18,Cc1cc(-c2ccc(C)c(S(=O)(=O)NC(C)Cc3ccco3)c2)on1 (stereo unspecified),active: 18.4 µM
19,Cc1ccc(S(=O)(=O)Oc2cccc(/C=N/n3cnnc3)c2)cc1,"inconclusive: 16.4 µM [falling, single point]"
20,CCN(CC)S(=O)(=O)c1cccc(NC(=O)C(=O)c2c(-c3ccccc3)cc3ccccn23)c1,"inconclusive: 29.1 µM [falling, single point]"
21,FC(F)(F)c1cccc(CON=C2CCN(c3ncc(C(F)(F)F)cc3Cl)CC2)c1,"inconclusive: 1.46 µM [falling, partial curve, poor fit]"
22,COc1cc(S(=O)(=O)Nc2ccc(C)cc2)ccc1N=Cc1c(C)c(C#N)c(=O)n(C)c1O,"inconclusive: 29.1 µM [falling, single point]"
